The results in this text go back to the supplement of paper PMC3334620.

Whole data set: some 33,000 sequences, median “E-score (-0.5 to 0.5)” near -8e-05, cut for the highest 2% near 0.23. The list shows a part of the results.

The target of this assay is T1, Nrg2 (UniProt P38082).
T1 sequence: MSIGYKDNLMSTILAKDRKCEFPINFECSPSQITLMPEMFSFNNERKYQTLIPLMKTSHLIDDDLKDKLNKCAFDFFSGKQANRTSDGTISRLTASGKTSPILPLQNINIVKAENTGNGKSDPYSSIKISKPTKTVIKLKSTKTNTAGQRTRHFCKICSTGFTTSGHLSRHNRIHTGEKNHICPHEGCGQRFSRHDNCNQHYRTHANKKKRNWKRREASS
The assay can be described thus: PBM E-score (8-mer binding enrichment) (E-score (-0.5 to 0.5)); higher = stronger / more preferred TF binding. As to conditions: protein concentration: 100 nM; construct: GST-full length. The procedure, abridged:
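Full-length yeast transcription factors or their DNA-binding domains, GST-tagged and expressed with PURExpress, were applied at about 100-200 nM to universal all-10-mer Agilent arrays. These arrays had been made double-stranded by primer extension on fresh or once-stripped slides. Detection used fluorescent anti-GST, normalisation used masliner, and E-scores for ungapped eight-base words pooled with reverse complements came from the Universal PBM Analysis Suite.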
Take CCTGAGCC: the “PBM E-score” value is -0.162.
The same measure for ACATGGTC: 0.0599; for CCAACATC: 0.0923.
The same measure for ACACGTCT: -0.192; for AAACGAGC: -0.039.
The value for CTACACCA was -0.153; that for CTTGTACA was -0.218.
Consider ATTCACCA, for which the “PBM E-score” value is -0.0677.
In the case of CGTTCTGC, the “PBM E-score” value amounted to 0.203.
The same measure for CTCGGCAC: 0.0273; for ACGTGTGG: -0.109.
AAGGCTAC: the “PBM E-score” value was -0.0541.
With AGTTGTGG, the “PBM E-score” value was determined as 0.156.
Regarding ACCAAGCC, the “PBM E-score” value was -0.0984.
As for CCCAGAAA, the “PBM E-score” value is 0.0848.
The same measure for TAGCCGGA: 0.0758; for GGGCAAAC: 0.0602.
Regarding GACGCCAA, the “PBM E-score” value was -0.127.
As to AACGACAG, the “PBM E-score” value was -0.0361.
The value for GAAGAGTA was 0.0187; that for CGGGAACA was 0.0862.
The same measure for CCAAGCTA: 0.0116; for AAATAGAG: -0.0562; for CCGATTTA: 0.0969.
The value for ACCTAAGA was 0.0161; that for AGGAATAA was 0.115; that for ATACCATG was -0.0769.
As to ACAAATCT, the “PBM E-score” value was 0.0536.
GGCTCGCA: the “PBM E-score” value was determined as 0.0356.
On to ACCCTGCC, for which the “PBM E-score” value turned out to be 0.0806.
The same measure for GCACAATA: -0.0537; for ATTGGAAG: -0.113; for ATGTATCC: 0.0124.
Consider GATGCGAA, for which the “PBM E-score” value was determined as 0.06.
The value for TGTCGAAA was -0.00208; that for GGCAATAA was 0.048.
On to CTCCTGCC, for which the “PBM E-score” value was -0.171.
The value for AGAAACTG was 0.0813; that for CGAACTGC was -0.0594.
Regarding CGACTTAA, the “PBM E-score” value is -0.157.
The same measure for ATCTAGTG: -0.0325; for AGTAAGGG: 0.233.
Turning to GGTGGAGA, the “PBM E-score” value was -0.149.
CAATAGTG: the “PBM E-score” value is -0.0138.
The value for CAGATTGA was -0.00691; that for CTGGTGAC was -0.211; that for GGAAAGCA was -0.0468.
In the case of GATCAAGC, the “PBM E-score” value is -0.0799.
The value for AGGGGTGG was 0.0388.
On to CAAGACTG, for which the “PBM E-score” value worked out at 0.076.
The same measure for CCGCCAAG: -0.0825; for GAGCACCA: -0.0692; for CACACGTG: -0.123.
Consider CATCCGTA, for which the “PBM E-score” value is -0.0267.
The same measure for ACAAGACG: -0.0224; for CGCCTGGC: -0.199.
The same measure for CGATGCCC: -0.103.
Consider AATTGGAA, for which the “PBM E-score” value was determined as 0.0257.
The value for CGGTGCGA was -0.168.
The value for ATTGGAGA was 0.16.
The value for CCAGACGG was -0.254; that for ACAACTCA was 0.189.
AGGCTATC: the “PBM E-score” value was -0.133.
The value for GTACTCAA was 0.0912; that for ACGTGGGA was -0.166; that for AATTCGAT was 0.0692.
The same measure for AGAGGTTA: -0.0297; for AATCACCG: 0.118; for TGCCGAAA: 0.124.
The value for CCGCTATA was 0.0143; that for AATAGGAA was 0.0574.
For GTAGCCAA, the “PBM E-score” value was -0.104.
The value for CGCTGGCC was -0.252; that for CCAGAGAG was -0.0955; that for AGCAGCTG was 0.0638.
The same measure for CGAGAGTA: 0.0862; for AGTATAAG: 0.0425; for CGACAGTC: -0.249.
GTAGGCGA: the “PBM E-score” value is 0.0848.
The same measure for AAACCGTT: -0.0711; for ATAAGATA: 0.161; for CAGTGTGC: -0.125.
The value for ACACTCCG was -0.0613; that for CAGAGTGA was 0.00026; that for AGGATGGC was -0.00026.
The same measure for AAGACCAC: -0.24.
Regarding CTCATTGA, the “PBM E-score” value was -0.0879.
The value for AACTCGAT was 0.097; that for CGATAACG was -0.12.
For the sequence CATGCATC, the “PBM E-score” value is -0.00044.
The same measure for ACCAAAAT: 0.0735; for CTCAAGTA: -0.0154; for ACCCCCCC: -0.487.
The same measure for ACCCCGGC: -0.119; for CAGATACA: 0.0962.
Consider GATAACGC, for which the “PBM E-score” value was determined as 0.102.
The same measure for AGGCCAGC: -0.0664; for CCTGCGGA: -0.0208.
In the case of CAACATCA, the “PBM E-score” value is 0.219.
The same measure for TAGGTACA: -0.115.
The value for CGCTGCCA was -0.203; that for AGCAGACG was 0.0994.
The same measure for ACGTTTAT: 0.00747; for CCACGATC: 0.0804; for GTCTTTGA: -0.193.
Take GATGAGGA: the “PBM E-score” value is -0.0383.
The value for TATAGACA was 0.0604; that for GTATGAAA was 0.0865.
The same measure for ATTCGAGC: 0.0426.
